PubChem BioAssay AID1224830 – NIAID – 2016
The whole screen tested about 18,000 reagents; below is a part drawn at random. About 2,900 of them (16%) were called active. 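Calls are made per well; low scores hint the gene aids the LPS response, high scores that it dampens it.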 Unmarked entries are inactive. Repeated entries: four replicate wells of each siRNA pool.

Assay: 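Host factors that control LPS-induced TNF expression in human macrophages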 (primary screen)
Cell system: human THP-1 monocytic leukaemia cells, TNF dual-luciferase reporter clone, PMA-differentiated to macrophage-like cells
Knock-down reagent: siRNA pool against human genes, 50 nM
Timing: LPS for 4 h, given about 3 days after siRNA transfection
Conditions: bacterial LPS (TLR4 ligand), 10 ng/ml
Detection: 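TNF firefly reporter luminescence divided by renilla, normalised to the plate median, then turned into a robust z-score for each replicate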
Reading the numbers: TNF reporter robust z-score: higher = stronger TNF reporter response to LPS
Rule for the call: 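Each well counts as active if its z-score is over 2.8 or under -1.5; controls are left without a call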

| target gene | TNF reporter robust z-score |
| --- | --- |
| RASAL2 | -1.77 (active) |
| RASAL2 | -1.69 (active) |
| RASAL2 | -1.86 (active) |
| RASAL2 | -1.63 (active) |
| TRADD | -0.02 |
| TRADD | 0.77 |
| TRADD | 0.03 |
| TRADD | 0.05 |
| SYNCRIP | -0.6 |
| SYNCRIP | -1.52 (active) |
| SYNCRIP | -0.82 |
| SYNCRIP | -0.45 |
| TIMD4 | 0.14 |
| TIMD4 | 0.84 |
| TIMD4 | 0.89 |
| TIMD4 | 0.95 |
| WNT7A | 10.8 (active) |
| WNT7A | 4.14 (active) |
| WNT7A | 4.22 (active) |
| WNT7A | 0.55 |
| NAT8 | 0.67 |
| NAT8 | 0.88 |
| NAT8 | -0.32 |
| NAT8 | 1.22 |
| SSX7 | 0.54 |
| SSX7 | 1.15 |
| SSX7 | -0.3 |
| SSX7 | -0.23 |
| KCNG2 | 0.4 |
| KCNG2 | 0.04 |
| KCNG2 | 0.25 |
| KCNG2 | 1.02 |
| KCNG2 | -1.84 (active) |
| KCNG2 | 0.82 |
| KCNG2 | 1.67 |
| KCNG2 | -0.73 |
| LYN | -0.58 |
| LYN | -0.42 |
| LYN | 0.68 |
| LYN | 0.96 |
| SEC61A1 | -1.59 (active) |
| SEC61A1 | -1.31 |
| SEC61A1 | -0.66 |
| SEC61A1 | -1.19 |
| RPLP2 | -1.58 (active) |
| RPLP2 | -1.66 (active) |
| RPLP2 | -1.68 (active) |
| RPLP2 | -1.16 |
| GSTO1 | -0.46 |
| GSTO1 | -1.17 |
| GSTO1 | -1.56 (active) |
| GSTO1 | -1.29 |
| PDXP | 0.99 |
| PDXP | 0.62 |
| PDXP | 1.3 |
| PDXP | 1.97 |
| STRN | 0.39 |
| STRN | 0.51 |
| STRN | 0.46 |
| STRN | -0.49 |

A stretch taken from the entries so far, as a working copy:
| target gene | TNF reporter robust z-score |
| --- | --- |
| RASAL2 | -1.77 (active) |
| RASAL2 | -1.69 (active) |
| RASAL2 | -1.86 (active) |
| RASAL2 | -1.63 (active) |
| TRADD | -0.02 |
| TRADD | 0.77 |
| TRADD | 0.03 |
| TRADD | 0.05 |
| SYNCRIP | -0.6 |
| SYNCRIP | -1.52 (active) |
| SYNCRIP | -0.82 |
| SYNCRIP | -0.45 |
| TIMD4 | 0.14 |
| TIMD4 | 0.84 |
| TIMD4 | 0.89 |
| TIMD4 | 0.95 |
| WNT7A | 10.8 (active) |
| WNT7A | 4.14 (active) |
| WNT7A | 4.22 (active) |

The results go on:
| target gene | TNF reporter robust z-score |
| --- | --- |
| NRBP1 | -0.97 |
| NRBP1 | -0.29 |
| NRBP1 | 0.03 |
| NRBP1 | 0.59 |
| EDN1 | -0.93 |
| EDN1 | -1.18 |
| EDN1 | -1.2 |
| EDN1 | -1.24 |
| ZNF41 | 0.33 |
| ZNF41 | -0.03 |
| ZNF41 | 0.72 |
| ZNF41 | 2 |
| DIP2B | 0.88 |
| DIP2B | 1.52 |
| DIP2B | 1.84 |
| DIP2B | 0.31 |
| OR1D2 | 1.13 |
| OR1D2 | 0.17 |
| OR1D2 | -0.05 |
| OR1D2 | 0.2 |
| CCT6B | -0.09 |
| CCT6B | -0.76 |
| CCT6B | -0.71 |
| CCT6B | 1.58 |
| BYSL | 0.14 |
| BYSL | -0.13 |
| BYSL | 0.3 |
| BYSL | 0.01 |
| LACTB2 | 0.51 |
| LACTB2 | 1.47 |
| LACTB2 | 0.19 |
| LACTB2 | 1.06 |
| FCGR2C | 1.02 |
| FCGR2C | 1.48 |
| FCGR2C | 1.13 |
| FCGR2C | 0.95 |
| SIGLEC6 | -0.87 |
| SIGLEC6 | -1.2 |
| SIGLEC6 | -1.31 |
| SIGLEC6 | -0.64 |
| SH2D3A | 0.67 |
| SH2D3A | -0.39 |
| SH2D3A | 0.84 |
| SH2D3A | 1.91 |
| DCPS | -0.82 |
| DCPS | 0.95 |
| DCPS | -0.09 |
| DCPS | -0.29 |
| MCTP1 | 0.18 |
| MCTP1 | 0.71 |
| MCTP1 | 0.81 |
| MCTP1 | 1.45 |
| BDKRB2 | -0.13 |
| BDKRB2 | -0.7 |
| BDKRB2 | -0.62 |
| BDKRB2 | -0.79 |
| ARHGAP24 | 1.92 |
| ARHGAP24 | 4.54 (active) |
| ARHGAP24 | 2.24 |
| ARHGAP24 | 0.68 |
| GPR173 | 0.51 |
| GPR173 | 0.65 |
| GPR173 | -0.12 |
| GPR173 | 0.85 |
| LOC155060 | -0.29 |
| LOC155060 | -0.43 |
| LOC155060 | -0.68 |
| LOC155060 | -0.02 |
| PI4K2A | -0.44 |
| PI4K2A | 1.2 |
| PI4K2A | 0.64 |
| PI4K2A | 1.04 |
| GPR22 | 0.34 |
| GPR22 | 2.57 |
| GPR22 | 0.58 |
| GPR22 | 1.6 |
| MIOX | 0.87 |
| MIOX | 2.33 |
| MIOX | 0.3 |
| MIOX | -0.15 |
